Legend:
[1] = general procedure: peptide synthesis; p-hydroxymethylphenoxy-polystyrene resin; 4-(2',4'-dimethoxyphenyl-hydroxymethyl)phenoxy-polystyrene resin (Novabiochem); TBTU/DIPEA; HBTU/DIPEA; details: trifluoroacetate; for conjugation yield: conjugation step; for cyclisation yield: cyclisation step
[2] = general procedure: peptide synthesis; Fmoc-Lys(Boc)-Sasrin; TBTU/DIPEA; HBTU/DIPEA; details: whole synthesis, scale 0.26 mmol, trifluoroacetate (1:2)

Row | Substance | conjugation yield [1] | cyclisation yield [1] | also measured
1 | (6-tert.-butoxycarbonyl-aminomethyl-10-hexyl-3,7-dimethoxy-phenothiazin-4- yl)-acetyl-glycyl-glycyl-L-alanyl-glycine methyl ester | 77.6% |  | 
2 | 3,7-dimethoxy-10-methyl-4,6-cyclo-[acetyl-glycyl-glycyl-L-alanyl-glycyl-aminomethyl]phenothiazine |  | 24.6% | 
3 | (10-benzyl-6-tert.-butoxycarbonylaminomethyl-3,7-dimethoxy-phenothiazin-4- yl)-acetyl-glycyl-glycyl-L-alanyl-glycine methyl ester | 82.9% |  | 
4 | 10-hexyl-3,7-dimethoxy-4,6-cyclo-[acetyl-glycyl-glycyl-L-alanyl-glycyl-aminomethyl]phenothiazine |  | 41.2% | 
5 | 4,5-Cyclo-[acetyl-L-valyl-L-arginyl-L-lysyl-L-isoleucyl-aminomethyl]-3,6-dimethoxy-9,9-dimethylxanthene trifluoroacetate |  |  | isolated mass [2]: 26 mg
6 | [3,7-dimethoxy-10-methyl-6-(1,3-dioxo-2,3-dihydro-1H-isoindol-2-ylmethyl)- phenothiazin-4-yl]-acetyl-glycyl-glycyl-L-alanyl-glycine methyl ester | 81.5% |  | 
